The structures appear in SMILES notation. The list shows a part of the results. The main result of the screen is listed elsewhere. These columns were measured beside it and carry no call. Compounds called inactive in the main read-out are mostly missing here. Words in brackets tell the shape of the fitted curve; partial curves, single points and poor fits give uncertain potencies.

The assay can be described thus: qHTS Assay to Find Inhibitors of Chronic Active B-Cell Receptor Signaling. To be noted: ABC-DLBCL IkBa-CBG/CBR reporter, luminescence ratio (green luciferase fused to IkBa over red control in TMD8 lymphoma cells), 4 h; measured here: CBR red luminescence, cell number. Summed up: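 Compounds up to 46 uM were incubated four hours with TMD8 cells whose green CBG68 luciferase is fused to IkappaBalpha; red CBR luminescence normalised the signal, and concentration-effect curves were fitted to fusion, red and ratio data.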
A general note: In qHTS, concentration-response curves come from the screen itself.
For `COc1ccccc1OP(=O)(Nc1ccc(Br)cc1)Oc1ccccc1OC`, the AC50 was 35.5 µM [falling, single point].

Consider `COc1ccc(NC(=O)CN2C(=O)CN=C(c3ccccc3)c3ccccc32)c(OC)c1`, for which the AC50 is 35.5 µM [rising, single point].

On to `COC(=O)C1=C(c2ccc(Cl)c(C(F)(F)F)c2)C[C@@H]2CC[C@H]1N2C(=O)NCc1ccco1`, for which the AC50 was 18.4 µM [falling, single point].

For `Cc1cc(C(=O)C[N+]23CCN(CC2)CC3)c(C)n1-c1ccc(Br)cc1`, the AC50 is 8.91 µM [falling, partial curve].

In the case of `O=C1C2CCCN2C(c2ccncc2)N1c1ccc(Cl)c(Cl)c1` (stereo unspecified), the half-maximal activity concentration (AC50) was 3.16 µM [rising, full curve, poor fit].

As to `CCCNC(=O)c1c(N)n(Cc2ccco2)c2nc3ccccc3nc12`, the AC50 is 32.6 µM [falling, partial curve, poor fit].

With `CC(C)[C@@]1(NC(=O)[C@@H]2C=C3c4cccc5[nH]cc(c45)C[C@H]3N(C)C2)O[C@@]2(O)[C@@H]3CCCN3C(=O)[C@H](Cc3ccccc3)N2C1=O`, the half-maximal activity concentration (AC50) is 29.1 µM [rising, partial curve, poor fit].

Turning to `C/C(=N\NC(=O)c1ccccc1)c1c(O)n(C2CCCCC2)c(=O)[nH]c1=O`, the AC50 was 2 µM [falling, full curve].

Regarding `Cc1nn(C)c(C)c1CN(Cc1nc(-c2cc(F)ccc2F)oc1C)C1CC1`, the AC50 is 28.2 µM [falling, single point].

Turning to `O=c1[nH]c(=S)[nH]c(O)c1N=Nc1ccc(OC(F)F)cc1`, the AC50 is 7.08 µM [falling, partial curve].

Regarding `CC1(C)C(c2ccccc2)=NC(c2cccnc2)=[N+]1[O-]`, the half-maximal activity concentration (AC50) was 0.1 µM [falling, full curve, poor fit].

Consider `CN1C(=O)C(Cc2ccc3c(c2)OCO3)C(=O)N(C)C1=O`, for which the AC50 was 0.0082 µM [rising, full curve, poor fit].

As to `CC1=Nc2cc(C(=O)N3CCC4(CC3)OCCO4)ccc2Sc2ccc(Cl)cc21`, the AC50 was 2.24 µM [rising, partial curve, poor fit].

Take `Cc1cc([N+](=O)[O-])nn1Cc1ccc(C(=O)N/N=C/c2ccc(N(C)C)cc2)cc1`: the AC50 is 10 µM [falling, partial curve, poor fit].

`CCOP(=O)(c1c(F)c(F)c(F)c(F)c1F)C1(O)CCCCC1` (stereo unspecified): the AC50 was 0.0731 µM [falling, full curve, poor fit].

Turning to `CCOc1ccc(NC(=O)CN(C)C(=O)CCCOc2ccc(Cl)c(C)c2)cc1OCC`, the concentration at half-maximal activity (AC50) is 8.91 µM [falling, partial curve].

As a reminder, the AC50 is the midpoint of the concentration-response curve, whichever way the signal moves.

These data come from PubChem BioAssay AID493014 (National Center for Advancing Translational Sciences (NCATS), 2011).
